# Record: PubChem BioAssay AID1159578 (Peter MacCallum Cancer Centre, 2015)
# Screen: 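siRNA pools altering how lymphatic endothelial cells close a scratch wound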 (primary screen)
# Cells: human lymphatic endothelial cells
# Reagents: siRNA pool against human genes, 40 nM
# Time to read-out: 48 h after transfection
# Measurement: 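Cells stained with dye and imaged after a scratch; covered wound area and nuclei counted, duplicates averaged, migration set against mock wells and turned into a robust z-score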
# Direction: migration robust z-score: higher = faster migration into the scratch; migration relative to mock: higher = more scratch area covered than mock; nuclei per well: higher = more cells in the well
# Rule for the call: 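Migration changed when robust z exceeds 2 or falls below -2 and mean nuclei number is at least 3300; otherwise not called changed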
# Calls: active = migration changed; inactive = no migration change, or too few cells
# This is an unselected part of about 18,000 deposited reagents. About 1,030 of all reagents (5.7%) count as active. 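Inactive calls also include pools with fewer than 3300 nuclei, whose migration was not assessed.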 Raw values vary from plate to plate and are shown uncorrected. A number with no mark means an inactive call.
The opening 7 records, to show the layout:
target gene,migration robust z-score,migration class with cell-count check,migration relative to mock,"nuclei per well, duplicate mean"
ATP1A4,-0.36,migration z between -2 and 2; enough cells,0.8,6846
RER1,0.32,migration z between -2 and 2; enough cells,0.98,6226
KPTN,0.08,migration z between -2 and 2; enough cells,0.82,5076
BCL11B,0.62,migration z between -2 and 2; enough cells,1.04,5728
ZNF761,0.73,migration z between -2 and 2; enough cells,1.08,5066
KANSL1L,0.1,migration z between -2 and 2; enough cells,0.9,6148
PPP1R11,0.51,migration z between -2 and 2; enough cells,1.02,4907

Main list, from the start:
target gene,migration robust z-score,migration class with cell-count check,migration relative to mock,"nuclei per well, duplicate mean"
ATP1A4,-0.36,migration z between -2 and 2; enough cells,0.8,6846
RER1,0.32,migration z between -2 and 2; enough cells,0.98,6226
KPTN,0.08,migration z between -2 and 2; enough cells,0.82,5076
BCL11B,0.62,migration z between -2 and 2; enough cells,1.04,5728
ZNF761,0.73,migration z between -2 and 2; enough cells,1.08,5066
KANSL1L,0.1,migration z between -2 and 2; enough cells,0.9,6148
PPP1R11,0.51,migration z between -2 and 2; enough cells,1.02,4907
IMPACT,-0.02,migration z between -2 and 2; enough cells,0.88,6262
OR51B5,1.56,migration z between -2 and 2; enough cells,1.29,5276
C10orf53,-0.88,migration z between -2 and 2; enough cells,0.66,5442
KLHL38,-0.34,migration z between -2 and 2; enough cells,0.8,3960
DTX2,-0.1,migration z between -2 and 2; enough cells,0.78,5074
MICB,0.78,migration z between -2 and 2; enough cells,0.96,6874
H4C11,-1.14,migration z between -2 and 2; enough cells,0.58,4640
CDK3,-0.42,migration z between -2 and 2; enough cells,0.72,5650
MARCHF10,-2.54 (active),migration z below -2; enough cells,0.32,4032
GRWD1,-0.8,migration z between -2 and 2; enough cells,0.68,5655
LSM14B,-0.46,migration z between -2 and 2; enough cells,0.76,4658
LEPROT,-3.41,under 3300 nuclei; migration not judged,0.02,2726
MS4A8,-0.1,migration z between -2 and 2; enough cells,0.78,3655
MPHOSPH10,-0.02,migration z between -2 and 2; enough cells,0.88,5606
ZMAT5,-0.05,migration z between -2 and 2; enough cells,0.87,5707
ZFP41,0.2,migration z between -2 and 2; enough cells,0.94,5516
PIGW,-0.14,migration z between -2 and 2; enough cells,0.85,5750
RORC,-1.14,migration z between -2 and 2; enough cells,0.58,6012
CTAGE15,-0.32,migration z between -2 and 2; enough cells,0.8,5745
OR10AG1,0.5,migration z between -2 and 2; enough cells,1.02,5210
HUNK,-1.32,migration z between -2 and 2; enough cells,0.55,4140
MYO9B,-0.13,migration z between -2 and 2; enough cells,0.78,4290
PCDHB13,-0.1,migration z between -2 and 2; enough cells,0.86,6267
TALDO1,-0.54,migration z between -2 and 2; enough cells,0.74,6780
ATP11C,-0.7,migration z between -2 and 2; enough cells,0.7,6224
TXNDC2,0.36,migration z between -2 and 2; enough cells,0.88,4848
SIK2,-0.7,migration z between -2 and 2; enough cells,0.67,5392
DEPDC1B,0.5,migration z between -2 and 2; enough cells,1.02,5846
HGH1,1.74,migration z between -2 and 2; enough cells,1.33,4356
KCNK6,-1.34,migration z between -2 and 2; enough cells,0.54,4921
DNAJC21,0.57,migration z between -2 and 2; enough cells,1.04,5325
RNASE9,-0.45,migration z between -2 and 2; enough cells,0.76,5012
MAGEA1,-0.83,migration z between -2 and 2; enough cells,0.67,5966
ARK2N,-1.86,migration z between -2 and 2; enough cells,0.4,6288
SMARCAD1,-0.36,migration z between -2 and 2; enough cells,0.79,5203
TIAM2,-0.18,migration z between -2 and 2; enough cells,0.77,5178
COL4A4,1.09,migration z between -2 and 2; enough cells,1.17,6272
WIPI1,-0.11,migration z between -2 and 2; enough cells,0.86,5860
IL31RA,0.11,migration z between -2 and 2; enough cells,0.82,5710
RAB38,-5.24,under 3300 nuclei; migration not judged,-0.2,2189
MLANA,-0.46,migration z between -2 and 2; enough cells,0.77,5942
ACVR1B,-5.63,under 3300 nuclei; migration not judged,-0.28,1722
NUAK1,-0.29,migration z between -2 and 2; enough cells,0.75,5380
APH1B,-0.91,migration z between -2 and 2; enough cells,0.63,5670
TMEM176B,-0.72,migration z between -2 and 2; enough cells,0.7,5760
CCDC81,-0.22,migration z between -2 and 2; enough cells,0.83,5612
JAML,0,migration z between -2 and 2; enough cells,0.88,6038
FBXW7,-1.5,migration z between -2 and 2; enough cells,0.52,5340
CSRP2,-1.19,migration z between -2 and 2; enough cells,0.57,5333
TRAK2,-0.6,migration z between -2 and 2; enough cells,0.69,6704
DEFA6,-0.76,migration z between -2 and 2; enough cells,0.68,5390
XPO1,0.57,migration z between -2 and 2; enough cells,0.92,5368
SIRPG,-0.01,migration z between -2 and 2; enough cells,0.88,6209
BMP10,2.29 (active),migration z above 2; enough cells,1.48,4434
HLTF,1.46,migration z between -2 and 2; enough cells,1.08,5401
FYCO1,-0.26,migration z between -2 and 2; enough cells,0.82,4660
RAB3IP,-0.9,migration z between -2 and 2; enough cells,0.65,5625
AHSP,-0.35,migration z between -2 and 2; enough cells,0.8,5012
GRIP2,-1.89,migration z between -2 and 2; enough cells,0.4,4288
NSUN2,1.02,migration z between -2 and 2; enough cells,1.15,6064
CRYBB3,-1.43,migration z between -2 and 2; enough cells,0.52,5495
TBP,-0.65,migration z between -2 and 2; enough cells,0.68,5358
HCRTR2,1.5,migration z between -2 and 2; enough cells,1.09,6759
MDFI,0.76,migration z between -2 and 2; enough cells,1.08,5600
BRPF1,0.9,migration z between -2 and 2; enough cells,0.98,6830
TSC22D3,2.49 (active),migration z above 2; enough cells,1.52,6117
